We go through one molecule from patent US20060292140A1 (published 2006).

The target in test [1] is lymphocytes from dog (species cross-reactivity study; antigen taken as dog α4β7 integrin) (dog). Briefly: flow cytometry on dog blood lymphocytes, 15 µg/ml. Background: In flow cytometry, cells or beads pass a laser one at a time.
For test [2], the target named is lymphocytes from cat (species cross-reactivity study; antigen taken as cat α4β7 integrin) (cat). Description: flow cytometry on cat blood lymphocytes, 15 µg/ml.

These are yes or no findings as the source states them, for the method shown. A result given as binding can be weak or reduced; the word gives no strength.

B1: murine Act-1 monoclonal antibody (antibody, mouse IgG1, V domains shown)
VH: QVQLQQPGAELVKPGTSVKLSCKGYGYTFTSYWMHWVKQRPGQGLEWIGEIDPSESNTNYNQKFKGKATLTVDISSSTAYMQLSSLTSEDSAVYYCARGGYDGWDYAIDYWGQGTSVTVSS
VL: DVVVTQTPLSLPVSFGDQVSISCRSSQSLAKSYGNTYLSWYLHKPGQSPQLLIYGISNRFSGVPDRFSGSGSGTDFTLKISTIKPEDLGMYYCLQGTHQPYTFGGGTKLEIK
notes: Mouse IgG1/kappa from the Act-1 hybridoma; also called mouse Act-1; ACT-1 (murine)
With B1, the binding result in test [1] and in test [2] was “binds” throughout.
